Source: article PMC6868398
Results are given in words; binding and its absence hold for the method and conditions named. Binding seen in cells or lysates may run through a third protein. A yes stands for co-enrichment or nearness to the bait. Other partners may have been found. For some of these results: A no says only that the protein was not detected with the bait. For some of these results: Sequences can lack the tags named with a protein.

Chains of the proteins cited; added tags and fusions are not shown.
UniProt Q17963: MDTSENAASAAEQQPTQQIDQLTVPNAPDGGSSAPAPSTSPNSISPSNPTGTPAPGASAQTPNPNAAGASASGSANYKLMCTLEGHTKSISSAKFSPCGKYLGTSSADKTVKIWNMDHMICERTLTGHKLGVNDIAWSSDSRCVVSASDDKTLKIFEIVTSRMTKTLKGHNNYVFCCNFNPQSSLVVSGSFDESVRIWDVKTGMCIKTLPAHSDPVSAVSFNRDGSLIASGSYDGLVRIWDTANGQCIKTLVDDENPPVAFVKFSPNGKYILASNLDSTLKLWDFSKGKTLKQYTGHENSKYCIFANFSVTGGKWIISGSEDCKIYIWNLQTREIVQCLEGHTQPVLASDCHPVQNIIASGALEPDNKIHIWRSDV

T1: CFP-1::GFP (C. elegans) (UniProt Q9XUE7)
T1 sequence: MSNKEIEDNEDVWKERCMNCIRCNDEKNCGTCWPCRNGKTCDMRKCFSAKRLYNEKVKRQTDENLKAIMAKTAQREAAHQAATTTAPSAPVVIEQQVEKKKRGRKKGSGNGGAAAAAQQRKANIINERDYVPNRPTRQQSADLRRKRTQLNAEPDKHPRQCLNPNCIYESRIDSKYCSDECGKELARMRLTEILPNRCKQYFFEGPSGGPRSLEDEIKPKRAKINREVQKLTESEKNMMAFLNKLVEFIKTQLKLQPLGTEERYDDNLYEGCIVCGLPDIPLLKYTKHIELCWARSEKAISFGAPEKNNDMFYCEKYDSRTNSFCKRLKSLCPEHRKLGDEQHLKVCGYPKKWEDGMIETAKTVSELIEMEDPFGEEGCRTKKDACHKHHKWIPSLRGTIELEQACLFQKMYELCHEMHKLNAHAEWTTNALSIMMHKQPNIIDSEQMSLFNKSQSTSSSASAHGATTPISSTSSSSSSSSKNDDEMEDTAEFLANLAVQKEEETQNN


target: HA::WDR-5.1 (C. elegans) (UniProt Q17963); assay: affinity purification with mass spectrometry; HA::WDR-5.1 precipitated with anti-HA affinity matrix from about 60 mg embryo extract (strain PFR506); IP buffer with 300 mM KCl, benzonase, HA peptide elution; nanoLC-MS/MS; wild-type (N2) embryos as negative control

Row | Molecule | binding
1 | SUMV-1 (protein, UniProt P46582 1-1024) MKQTTRPPAQYIVAPGTRFRLVANEYDKNKYGQCNYASYRTLVRCKQIRSKEELAKHGGRCEEHVEFSKTLENNHKKEVMRCHAENDSKMQRRRFDPWIASNEYISDDDDYLQAAQTVPQRLPDVANDDILDNNSLRYAEYYTDKDILNIKMDLVQKDIDDLIEFKELVTSQAQKEHELLGNDEEEDYPTDMAQRRIFKASTKYSRNDYLTLTTIDPVFHQCCVGPDMDDSLVIVHTMHSILDKIDNFEPIDSEKQCNKPALHLSKFCFDHIILDRSQKMFDVCNACGLTAIGGVDPKCSFHIKSSAIAETTSCPCNRCVQPGEHASPKDEKNSITCYLNSSDDDEPTLGNLSRIESMVSPMQQFSNQSNTLTAPLPRRYQGPPAQVLRPPQMGPPPGINQVPYQPKANRTPPMTSQQLHEQQKLKMQEEEMMSQTCASDFRVRPIDASQFGGGKKKQRLPPRRSPSFGTSPNSYQFHQQSQKKMPSIISTAYNSSPGKMNFQGWKNQSTSSATRPLPQPRFPVHAARSQQPKMIPLEQTQDSIEDDIGPSPMFQGPEPSRRGVPYYKNAYRRTELPSRHAQHSPLTPSTSTSSSQLLAPPKSPQPGTSSQTFRSQASRLPIAPHRAIAAGLNPADVGTRPAYRSQMAGQRPGMTPSAQQGSPQLISPPRQGSMMPVAMNQSPQAVRRQTPVPPYRLMGPQRVTTSYTVVRSGSSSSVAGPSRSSVASGSQHTALDTVQHDPRLANINVRTFLSIGNRDLSTLTQDEIDLLMAGNSPEKGGRKAGAPGAKESSKAAGGAQKGTSAASTSVPEPTKSSESSVDPQSDVSFSNPSPAPEVIEKVAPAAMTITSNKRKIDETLASESTSSEATLIHDTTSSSSAETVSGEPPAKKSSDVSAPVPSPEKEKEKIDRPKTPKSSTKRTTPTPSGRTPRAAAIAANQAISHSKPNVPSASTSSSAASTDQENPLDLLAELSVAAAAEEQQQAIGSTSKNGGSTKKTQRKSPSRSSIGKKRENSEEYEEEL | binds
2 | RBBP-5 (protein, UniProt Q09309 1-454) MVEILDRTYGAQFPEELECHLDLQNASANCCKFNRWGSIVAVGCTDGRVLIYDFMTRNIARTFSAHCLPVSCLSWSRDGRKLLTSSADNSIAMFDVLAGTLLHRIRFNSMVTFAMFHPRNDNKAIVLQVNKQPTVEQFSPRIQTVLANDTPGSSDESASCVSYDRKGKYIIAGTGKGKLLIYNAETLKCVAWCKQNTVQQIRQIIVPMKSRFIITNTQDRVIRTYELEDLLHQRGQMVEAKYKVLDMVNKAAWKNVCTDSDGLYVCGASTKAHSLYIWESNTGSLIKILHGNKGEALLDVQWHPTRPIILSIAQGTVSMWTQAHVENWSAFAPEFQELEENEKYIEKENEFDMEDEDADEDMTSKSQDAEDDIIDVVNVRPEDYLASSDEEDCNIMKPARNLESGPLWYIPVPLDIENADNDQRLPDDIRNLDNLLNPAWVASAKGYELSPKSK | binds

More lines, now with the values ahead:

Row | binding | Molecule
3 | binds | SUMV-2 (protein, UniProt Q22992 1-1145) MKPGRKSLPKKNRASNITEKMPTTSTEAQSSSSKNQDRCRSFSQELGVDDEPEEQQAPVATPKQTKKAQKTAKTTEEVKSPRKSARKSELKKPEPEEKAKEPRKSASKRKSSSLMNKDEPSTSTEAPSADVPGTSEASDEASEIQEAPENPNSALAIKKRLMGGGESSKSAPTKNPPKARKSNVKKPEKEAEALAPPEPPAEPQEAAETPAPEPLVPEKKPKIEDAPTTSSPKKSTPTSAPPTRASARVSKPNRLYADGSFNTEILGRTRITEQNPVKEAQAKESTPELADLPLPAGRRKSTAAPRAPPAPKPIPVINGVLRGYIPSVKVPLAEYEVDGEIINLNEGVNETMDTILAKVCEDGVEKHEDIDPKVVKAKKLAKIDYTKRLKLQVKKLDIQMRIKIPSTPEELGKRKRQAPKTDDFYWSAQSRTKLKGSSKEREETPAFDEESPIGGDEKRQQKARESISHLFDAEMDASIKEAKKYSVSFDKYIKPKITGALKHAKIKLMSRKRQSAEPDDFYYHELLVDQVSPSNSNVENVDVDVDIEETDDKVDPTEFEISEEGVIGIRDEAVDMAEQIALVIPRPTKHDGSPMSMDEIQMRAMEHVESRTKCLDGSLEIVLNQLGHEMAPPTRGVEEQGCQWHTVTSANAQALKNLYTIANNCTEDAITWTHQFMIENLEVHMLASYLSILKYAKRLNSSRFGYVISSTDQLDPEWTQVTSLLKSFVYKRHTEPGTEVLNNTIPYHRMTDTVFLLVPPTLTFGDHQRAPPRHHARIFRWLQSIGHQDSEFISFDEDIDATCSVAEYLSDVIVERICDKVRQKNKYRPNCNVVLVGYGASTYLIHRAANLVEGISAIISIGFPVMTSLGRRGTADDEILLTYCPTLFIVGAEGRRFNNEAITELRTSMISPSGLVVVGHSNDMILVPTSMLLRLGISQTVVFRMVLEKILDFLNLEPVRQQEFADLVPIELNNVFDLDSALLKSDKALSGLAFASSTHSASSSAAPSPVGASGRRATVTGAGSEDIAKRRKESIILSQQIAAPSISGPPPPAPSPRTEDRFLAFQNLVASTITTGDDMPRRASMGASPRVIERGDFRDHRPPPPPPLPILQNPVATPMSQQPPLPSPAPPPPRGPVDPASISLI
4 | binds | OGT-1 (protein, UniProt O18158 1-1151) MEKPNYFQSYNKVIGATGEQLAPGAVPPHPVLAPSIAPGGVAGVSAANMANIMQTPGFANLVQQAIRTQLENQAAQQLAVNQQFQLNGATAVQQQLLLTPQQSLAQPIALAPQPTVVLNGVSETLKKVTELAHRQFQSGNYVEAEKYCNLVFQSDPNNLPTLLLLSAINFQTKNLEKSMQYSMLAIKVNNQCAEAYSNLGNYYKEKGQLQDALENYKLAVKLKPEFIDAYINLAAALVSGGDLEQAVTAYFNALQINPDLYCVRSDLGNLLKAMGRLEEAKVCYLKAIETQPQFAVAWSNLGCVFNSQGEIWLAIHHFEKAVTLDPNFLDAYINLGNVLKEARIFDRAVSAYLRALNLSGNHAVVHGNLACVYYEQGLIDLAIDTYKKAIDLQPHFPDAYCNLANALKEKGSVVEAEQMYMKALELCPTHADSQNNLANIKREQGKIEDATRLYLKALEIYPEFAAAHSNLASILQQQGKLNDAILHYKEAIRIAPTFADAYSNMGNTLKEMGDSSAAIACYNRAIQINPAFADAHSNLASIHKDAGNMAEAIQSYSTALKLKPDFPDAYCNLAHCHQIICDWNDYDKRVRKLVQIVEDQLCKKRLPSVHPHHSMLYPLSHAARIAIAAKHASLCFDKVHVQMLGKTPLIHADRFSVQNGQRLRIGYVSSDFGNHPTSHLMQSIPGMHDRSRVEVFCYALSVNDGTNFRSKLMNESEHFVDLSQIPCNGKAAEKIAQDGIHILINMNGYTKGARNEIFALRPAPIQVMWLGYPSTSGATFMDYIITDAVTSPLRLANAFTEKLAYMPHTFFIGDHAQMLRHLTDKVVVKDKETTERDSCLIMNTANMDPILAKSEIKEQVLDTEVVSGPNKELVRAEMVLPVLEVPTEPIKQMIMTGQMTMNVMEDMNVQNGLGQSQMHHKAATGEEIPNSVLLTSRAQYQLPDDAIVFCNFNQLYKIDPSTLDMWIKILENVPKSILWLLRFPYQGEEHIRKYCVERGLDPSRIVFSNVAAKEEHVRRGQLADVCLDTPLCNGHTTGMDILWTGTPMVTMPLESLASRVATSQLYALGVPELVAKTRQEYVSIAVRLGTDADHLANMRAKVWMARTSSTLFDVKQYCHDMEDLLGQMWKRYESGMPIDHITNNTETPHGL

target: T1, CFP-1::GFP (C. elegans); assay: affinity purification with mass spectrometry; CFP-1::GFP precipitated with GFP-TRAP MA beads from about 70 mg late stage embryo extract (strain PFR572); IP buffer with 300 mM KCl, benzonase; nanoLC-MS/MS; wild-type (N2) embryos as negative control

Row | binding | Molecule
5 | binds | SWD-2.1 (C. elegans (endogenous in embryos))
6 | no binding | SET-16 (C. elegans (endogenous in embryos))
7 | no binding | SUDS-3 (C. elegans (endogenous in embryos))
8 | no binding | PIS-1 (C. elegans (endogenous in embryos))
9 | no binding | UTX-1 (C. elegans (endogenous in embryos))
10 | binds | RBBP-5 (protein, UniProt Q09309 1-454) MVEILDRTYGAQFPEELECHLDLQNASANCCKFNRWGSIVAVGCTDGRVLIYDFMTRNIARTFSAHCLPVSCLSWSRDGRKLLTSSADNSIAMFDVLAGTLLHRIRFNSMVTFAMFHPRNDNKAIVLQVNKQPTVEQFSPRIQTVLANDTPGSSDESASCVSYDRKGKYIIAGTGKGKLLIYNAETLKCVAWCKQNTVQQIRQIIVPMKSRFIITNTQDRVIRTYELEDLLHQRGQMVEAKYKVLDMVNKAAWKNVCTDSDGLYVCGASTKAHSLYIWESNTGSLIKILHGNKGEALLDVQWHPTRPIILSIAQGTVSMWTQAHVENWSAFAPEFQELEENEKYIEKENEFDMEDEDADEDMTSKSQDAEDDIIDVVNVRPEDYLASSDEEDCNIMKPARNLESGPLWYIPVPLDIENADNDQRLPDDIRNLDNLLNPAWVASAKGYELSPKSK
